{
  "sequences": {"note": "Protein sequences, listed by entry. Tags and fused reporters are not part of them. Residues count along the entry.", "UniProt P02769, 25-607": "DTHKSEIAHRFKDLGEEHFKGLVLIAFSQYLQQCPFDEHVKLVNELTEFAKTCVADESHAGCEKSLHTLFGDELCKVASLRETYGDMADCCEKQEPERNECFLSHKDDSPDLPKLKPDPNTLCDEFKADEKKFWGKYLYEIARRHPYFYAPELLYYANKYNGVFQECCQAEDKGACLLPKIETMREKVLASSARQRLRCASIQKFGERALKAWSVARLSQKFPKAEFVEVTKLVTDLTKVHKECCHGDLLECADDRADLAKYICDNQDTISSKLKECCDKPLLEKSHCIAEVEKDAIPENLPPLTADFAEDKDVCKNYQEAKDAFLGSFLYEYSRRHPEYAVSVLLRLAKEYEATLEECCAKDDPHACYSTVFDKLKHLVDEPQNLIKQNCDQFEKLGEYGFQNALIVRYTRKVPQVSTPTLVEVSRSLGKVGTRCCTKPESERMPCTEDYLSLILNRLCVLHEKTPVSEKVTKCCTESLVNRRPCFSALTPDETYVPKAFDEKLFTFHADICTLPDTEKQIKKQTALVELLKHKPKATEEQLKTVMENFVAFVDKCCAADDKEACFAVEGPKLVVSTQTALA"},
  "source": "paper PMC12806343",
  "key": {"[1]": {"biological_target": "bovine serum albumin (BSA) (Bos taurus) (UniProt P02769)", "test": "EMSA (TBE-PAGE)", "conditions": "5' amine (NH2), binding buffer composition not given, commercial protein, folded or branched DNA"}, "[2]": {"tested_on": "myoglobin", "test": "EMSA (TBE-PAGE)", "conditions": "5' amine (NH2), binding buffer composition not given, commercial protein, folded or branched DNA"}},
  "note": "A negative result means that nothing was seen under these conditions. For some assays here: The exact form of at least one protein or probe is not confirmed.",
  "data": [
    {"sequence": "GTACCTGCTCTCCGCGCGAAGCACGCCAGGGACT [Tr-Apt13]", "values": [
      {"measurement": "binding result", "setting": "[1]", "value": "no binding"},
      {"measurement": "binding result", "setting": "[2]", "value": "no binding"}
    ]}
  ]
}
